Laboratory results from article PMC5593949.

Sequences of proteins named here, by UniProt entry; tags and fusion partners are left off.
UniProt A0A1D8PCM9: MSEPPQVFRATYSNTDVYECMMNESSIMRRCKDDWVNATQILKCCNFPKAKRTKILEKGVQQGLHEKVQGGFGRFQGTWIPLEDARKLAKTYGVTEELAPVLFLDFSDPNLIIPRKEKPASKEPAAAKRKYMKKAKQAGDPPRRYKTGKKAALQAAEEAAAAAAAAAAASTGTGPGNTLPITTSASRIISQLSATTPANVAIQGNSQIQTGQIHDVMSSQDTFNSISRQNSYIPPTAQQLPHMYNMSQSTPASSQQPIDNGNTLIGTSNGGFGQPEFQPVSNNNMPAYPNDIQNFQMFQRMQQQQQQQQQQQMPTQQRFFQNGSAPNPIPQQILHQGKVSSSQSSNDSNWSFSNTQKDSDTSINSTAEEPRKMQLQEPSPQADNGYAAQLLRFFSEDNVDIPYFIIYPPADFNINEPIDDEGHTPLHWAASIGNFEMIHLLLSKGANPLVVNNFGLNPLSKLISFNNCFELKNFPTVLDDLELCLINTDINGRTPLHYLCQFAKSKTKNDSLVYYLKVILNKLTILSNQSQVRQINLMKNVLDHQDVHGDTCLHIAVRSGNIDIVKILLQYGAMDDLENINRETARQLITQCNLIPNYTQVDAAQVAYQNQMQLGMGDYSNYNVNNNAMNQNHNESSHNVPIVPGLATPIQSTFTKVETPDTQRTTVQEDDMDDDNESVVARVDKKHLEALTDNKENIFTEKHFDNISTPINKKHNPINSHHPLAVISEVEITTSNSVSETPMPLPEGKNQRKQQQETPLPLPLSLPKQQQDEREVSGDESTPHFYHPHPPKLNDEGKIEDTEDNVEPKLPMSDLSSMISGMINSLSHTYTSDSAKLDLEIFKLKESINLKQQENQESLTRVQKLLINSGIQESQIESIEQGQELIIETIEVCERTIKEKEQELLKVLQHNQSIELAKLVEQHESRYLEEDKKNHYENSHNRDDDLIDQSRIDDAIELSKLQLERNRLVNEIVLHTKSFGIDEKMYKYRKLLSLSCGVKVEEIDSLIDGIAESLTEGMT

Molecular target: T1, Cas5-HA (C terminally HA-tagged Cas5) (C. albicans) (UniProt Q5AMH6)
T1 sequence: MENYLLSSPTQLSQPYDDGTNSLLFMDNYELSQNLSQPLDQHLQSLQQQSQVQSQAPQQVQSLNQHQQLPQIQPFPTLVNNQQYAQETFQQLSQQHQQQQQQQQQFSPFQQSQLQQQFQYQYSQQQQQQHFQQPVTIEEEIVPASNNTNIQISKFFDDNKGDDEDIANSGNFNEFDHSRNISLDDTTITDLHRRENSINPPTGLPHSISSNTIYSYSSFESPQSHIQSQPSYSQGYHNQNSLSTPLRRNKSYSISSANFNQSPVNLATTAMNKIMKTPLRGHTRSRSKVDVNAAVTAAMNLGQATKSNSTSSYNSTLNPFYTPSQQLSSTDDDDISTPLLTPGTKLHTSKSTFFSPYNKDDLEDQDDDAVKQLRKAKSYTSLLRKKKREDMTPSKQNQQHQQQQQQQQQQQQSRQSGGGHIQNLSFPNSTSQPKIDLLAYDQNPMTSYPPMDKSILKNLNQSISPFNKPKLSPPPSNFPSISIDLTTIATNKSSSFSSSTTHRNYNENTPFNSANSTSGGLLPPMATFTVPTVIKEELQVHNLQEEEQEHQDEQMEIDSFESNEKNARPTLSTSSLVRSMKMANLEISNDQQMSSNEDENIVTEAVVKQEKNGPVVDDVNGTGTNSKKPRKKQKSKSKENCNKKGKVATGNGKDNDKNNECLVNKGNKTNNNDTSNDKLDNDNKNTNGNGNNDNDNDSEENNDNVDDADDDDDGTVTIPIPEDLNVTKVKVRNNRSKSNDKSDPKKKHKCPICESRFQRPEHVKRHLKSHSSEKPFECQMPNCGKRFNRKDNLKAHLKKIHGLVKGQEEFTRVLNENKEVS
Test: affinity purification with mass spectrometry; clarified whole-cell lysates (10 mg protein per sample) extracted with immobilized anti-HA beads for 3 h; washed with lysis buffer and water; eluted with 0.15% TFA; trypsin digest, LC-MS/MS; SAINT probability threshold 0.9

Substance: Swi4 (from UniProt A0A1D8PCM9 1-1019)
- binding: binds

No constants are given. Whether binding was seen depends on the method and setting. In cells and extracts the contact can be indirect. These calls come from enrichment with a bait or labelling near it, and not all partners need be listed. Where a sequence is shown, tags or fusion partners need not be part of it.
